These are yes or no findings as the source states them, for the method shown. In cells and extracts the contact can be indirect. For part of these data: Binding can be weak; no strength is given.
How the values were obtained:
[1] = biological target: full-length lamin A of LAPS, phosphorylated at serine 22 (UniProt P02545); experiment: FRET or BRET; live HeLa cells expressing pLamin A biosensor 2.0 (as LAPS but with the EV linker of 120 amino acids); FRET ratio as cells exit mitosis
[2] = biological target: full-length lamin A of LAPS with S392A, phosphorylated at serine 22 (UniProt P02545); experiment: FRET or BRET; live HeLa cells expressing LAPS (FHA2, YPet, 34-amino-acid linker, ECFP and full-length lamin A on one chain); ratio of the FRET and ECFP channels by confocal microscopy, 445-nm excitation; mitosis against interphase; also hypotonic medium, cell adhesion, release from RO-3306 or double thymidine
[3] = biological target: full-length lamin A of LAPS with S22A (UniProt P02545); experiment: as above

Chains of the proteins cited; added tags and fusions are not shown. Lines headed by an entry give the natural chain unless they say otherwise; changes in a name come on top.
UniProt P02545: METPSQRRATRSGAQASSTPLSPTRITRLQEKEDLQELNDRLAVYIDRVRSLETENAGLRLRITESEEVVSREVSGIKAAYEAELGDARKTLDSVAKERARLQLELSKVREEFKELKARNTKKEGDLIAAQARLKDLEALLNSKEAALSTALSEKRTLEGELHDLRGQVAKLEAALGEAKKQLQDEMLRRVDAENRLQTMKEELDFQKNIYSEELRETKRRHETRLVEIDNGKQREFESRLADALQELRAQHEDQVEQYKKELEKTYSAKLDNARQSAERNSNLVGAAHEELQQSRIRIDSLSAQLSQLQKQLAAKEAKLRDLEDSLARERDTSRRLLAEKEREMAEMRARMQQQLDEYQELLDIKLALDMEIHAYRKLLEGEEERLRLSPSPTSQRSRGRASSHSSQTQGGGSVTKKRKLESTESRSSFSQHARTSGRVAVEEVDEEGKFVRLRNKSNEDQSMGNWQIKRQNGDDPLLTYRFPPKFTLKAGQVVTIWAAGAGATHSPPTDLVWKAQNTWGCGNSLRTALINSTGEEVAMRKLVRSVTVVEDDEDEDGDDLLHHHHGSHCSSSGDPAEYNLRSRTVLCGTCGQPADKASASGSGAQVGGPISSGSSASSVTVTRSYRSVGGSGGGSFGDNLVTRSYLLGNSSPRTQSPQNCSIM
UniProt P22216: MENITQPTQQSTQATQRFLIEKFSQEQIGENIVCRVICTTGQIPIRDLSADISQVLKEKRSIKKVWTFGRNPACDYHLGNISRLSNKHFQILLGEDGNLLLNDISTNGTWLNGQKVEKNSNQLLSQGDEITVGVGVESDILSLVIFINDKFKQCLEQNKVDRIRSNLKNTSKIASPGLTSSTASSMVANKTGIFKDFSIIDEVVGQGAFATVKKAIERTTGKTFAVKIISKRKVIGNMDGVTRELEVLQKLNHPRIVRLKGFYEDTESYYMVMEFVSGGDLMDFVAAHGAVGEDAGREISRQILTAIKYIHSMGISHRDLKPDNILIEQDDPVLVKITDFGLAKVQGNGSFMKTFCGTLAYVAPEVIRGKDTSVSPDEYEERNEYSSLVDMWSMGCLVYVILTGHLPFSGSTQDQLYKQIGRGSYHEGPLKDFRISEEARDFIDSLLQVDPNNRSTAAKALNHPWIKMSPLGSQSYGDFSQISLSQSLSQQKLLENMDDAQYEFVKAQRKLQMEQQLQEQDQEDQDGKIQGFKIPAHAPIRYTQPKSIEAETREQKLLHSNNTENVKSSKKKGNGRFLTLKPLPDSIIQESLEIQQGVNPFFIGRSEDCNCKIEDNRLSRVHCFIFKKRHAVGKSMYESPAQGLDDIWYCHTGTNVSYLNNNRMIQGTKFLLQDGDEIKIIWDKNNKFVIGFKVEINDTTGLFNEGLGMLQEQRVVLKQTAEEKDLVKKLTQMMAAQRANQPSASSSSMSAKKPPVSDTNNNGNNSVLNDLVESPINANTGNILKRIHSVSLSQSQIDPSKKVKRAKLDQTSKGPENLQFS

binding [1]: binds | binding [2]: binds | binding [3]: no binding
Substance: FHA2 domain of the lamin A phosphorylation sensor (LAPS), wild type (from UniProt P22216) (domain or fragment)
